The results in this text go back to paper PMC10643408.

The chains behind the UniProt entries cited, without tags or fusion partners. Residues count along the entry.
UniProt Q9UKV8, residues 229-348: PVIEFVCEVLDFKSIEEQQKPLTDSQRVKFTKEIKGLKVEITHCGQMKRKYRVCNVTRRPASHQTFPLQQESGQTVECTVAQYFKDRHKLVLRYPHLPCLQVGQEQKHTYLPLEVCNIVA
UniProt Q96AZ6: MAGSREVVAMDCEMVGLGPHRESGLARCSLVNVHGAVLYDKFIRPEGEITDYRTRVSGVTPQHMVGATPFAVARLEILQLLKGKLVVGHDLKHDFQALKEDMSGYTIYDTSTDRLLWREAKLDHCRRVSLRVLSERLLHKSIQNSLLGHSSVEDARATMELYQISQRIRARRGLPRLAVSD

Results are given in words; binding and its absence hold for the method and conditions named.

In the experiment the target is isolated PAZ domain of human AGO2 (human) (UniProt Q9UKV8). As to the kind of experiment: SEC; Superdex 75 increase 10/300 GL; running buffer 150 mM NaCl, 20 mM Tris-HCl pH 7.5, 2 mM DTT; AGO2 PAZ domain, ISG20 or a mixture of both injected; mixture incubated on ice for 60 min before injection; both purified.

Turning to “interferon-stimulated gene 20 kDa (ISG20) (from UniProt Q96AZ6 1-181) (enzyme)”, the binding result was “no binding (tested: 100 μmol injected (so in the source))”.
